Read-outs that look alike come from different tables or passages of the source. These are yes or no findings as the source states them, for the method shown. Binding seen in cells or lysates may run through a third protein. Some results given as binding are weak or reduced against the parent protein; the word gives no strength.

Sequences of proteins named here, by UniProt entry; tags and fusion partners are left off.
UniProt Q60631: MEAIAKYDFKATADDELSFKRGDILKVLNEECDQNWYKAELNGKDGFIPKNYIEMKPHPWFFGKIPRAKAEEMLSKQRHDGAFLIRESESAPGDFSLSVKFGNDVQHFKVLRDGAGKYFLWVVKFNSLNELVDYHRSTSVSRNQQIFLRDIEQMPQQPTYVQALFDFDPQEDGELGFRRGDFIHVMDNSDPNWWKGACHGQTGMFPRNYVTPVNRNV
UniProt Q3TTA7: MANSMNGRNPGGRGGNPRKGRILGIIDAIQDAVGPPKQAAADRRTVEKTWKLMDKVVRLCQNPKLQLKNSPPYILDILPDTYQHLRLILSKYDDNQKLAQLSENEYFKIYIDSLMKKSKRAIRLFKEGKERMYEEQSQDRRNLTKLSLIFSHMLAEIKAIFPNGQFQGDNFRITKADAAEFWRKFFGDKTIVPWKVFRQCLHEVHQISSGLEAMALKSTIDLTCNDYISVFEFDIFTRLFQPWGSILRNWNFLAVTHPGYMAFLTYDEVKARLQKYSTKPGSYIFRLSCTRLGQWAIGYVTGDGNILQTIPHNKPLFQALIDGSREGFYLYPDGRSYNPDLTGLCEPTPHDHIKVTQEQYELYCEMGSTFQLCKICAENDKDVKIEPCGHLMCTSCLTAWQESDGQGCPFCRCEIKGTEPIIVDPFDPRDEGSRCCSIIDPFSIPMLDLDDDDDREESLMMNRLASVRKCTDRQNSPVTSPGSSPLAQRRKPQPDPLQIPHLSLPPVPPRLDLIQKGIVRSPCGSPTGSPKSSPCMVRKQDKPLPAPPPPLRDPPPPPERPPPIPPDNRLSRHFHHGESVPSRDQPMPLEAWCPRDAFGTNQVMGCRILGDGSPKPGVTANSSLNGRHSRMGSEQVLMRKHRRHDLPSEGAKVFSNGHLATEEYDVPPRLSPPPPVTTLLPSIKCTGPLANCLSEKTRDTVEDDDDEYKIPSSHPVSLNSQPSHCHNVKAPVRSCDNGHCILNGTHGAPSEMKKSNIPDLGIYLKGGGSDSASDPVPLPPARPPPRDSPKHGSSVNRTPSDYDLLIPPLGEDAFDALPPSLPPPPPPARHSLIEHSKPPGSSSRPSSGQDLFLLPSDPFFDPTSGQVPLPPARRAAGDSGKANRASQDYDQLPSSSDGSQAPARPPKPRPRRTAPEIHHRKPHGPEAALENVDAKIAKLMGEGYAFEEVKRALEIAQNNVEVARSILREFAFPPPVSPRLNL

From PMC3384629 come the findings set out here.

What all share (assay): co-IP; endogenous proteins from precleared RIPA lysates of BMM (resting, stimulated with 1 ug/ml LPS, or LPS-tolerant and re-challenged); anti-DOK3 or anti-Grb2 antibody on ice 1 h, protein A or G beads at 4 C 1 h; immunoblot
On the technique in general: A western blot detects proteins with antibodies after separation by electrophoresis.

In experiment [1] the target is T1, DOK3 (mouse (endogenous in BMM)) (UniProt Q9QZK7).
T1 sequence: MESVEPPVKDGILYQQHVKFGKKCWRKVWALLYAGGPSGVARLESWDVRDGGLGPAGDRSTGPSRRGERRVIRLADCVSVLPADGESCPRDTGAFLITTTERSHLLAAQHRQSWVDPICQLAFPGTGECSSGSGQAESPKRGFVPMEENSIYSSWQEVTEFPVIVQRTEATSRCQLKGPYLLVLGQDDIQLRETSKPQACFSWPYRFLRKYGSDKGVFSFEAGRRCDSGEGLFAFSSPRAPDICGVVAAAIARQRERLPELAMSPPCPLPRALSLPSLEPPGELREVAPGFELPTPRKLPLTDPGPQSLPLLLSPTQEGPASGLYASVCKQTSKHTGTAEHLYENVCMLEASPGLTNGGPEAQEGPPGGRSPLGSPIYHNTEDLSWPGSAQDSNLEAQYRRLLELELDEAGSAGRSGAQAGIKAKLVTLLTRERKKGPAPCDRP

Experiment [2] concerns the target Grb2 (mouse (endogenous in BMM)) (UniProt Q60631).
The target is the same in experiment [3]. This is another data set of the same source.

For Cbl-b (from UniProt Q3TTA7 1-982), in experiment [1], the binding entry is reported as “binds”.

With Grb2 (from UniProt Q60631 1-217), the binding entry in experiment [1] is “binds”.

Take SOS1 (from UniProt Q62245 1-1319): the binding result in experiment [1] and in experiment [2] was “binds” each time.

B1: DOK3 (protein, UniProt Q9QZK7 1-444)
chain: MESVEPPVKDGILYQQHVKFGKKCWRKVWALLYAGGPSGVARLESWDVRDGGLGPAGDRSTGPSRRGERRVIRLADCVSVLPADGESCPRDTGAFLITTTERSHLLAAQHRQSWVDPICQLAFPGTGECSSGSGQAESPKRGFVPMEENSIYSSWQEVTEFPVIVQRTEATSRCQLKGPYLLVLGQDDIQLRETSKPQACFSWPYRFLRKYGSDKGVFSFEAGRRCDSGEGLFAFSSPRAPDICGVVAAAIARQRERLPELAMSPPCPLPRALSLPSLEPPGELREVAPGFELPTPRKLPLTDPGPQSLPLLLSPTQEGPASGLYASVCKQTSKHTGTAEHLYENVCMLEASPGLTNGGPEAQEGPPGGRSPLGSPIYHNTEDLSWPGSAQDSNLEAQYRRLLELELDEAGSAGRSGAQAGIKAKLVTLLTRERKKGPAPCDRP
B1: the binding result in experiment [3] is “binds”.
